Experimental data taken from PubChem BioAssay AID194 (DTP/NCI, 2004).
The list does not hold the whole screen: it gathers tests that were run many times, whatever their T/C, doses with no T/C, and many T/C values between a quarter and a half above the control. Other doses and runs of a compound stand elsewhere. T/C is the treated group as % of the vehicle group. Some doses have a count of surviving animals in place of a T/C: the source holds a T/C of zero for them, seemingly a mark for toxic or unscored doses. Some doses without a T/C left all or most animals alive at the check, yet need not have been tolerated: survival well below the control is almost never listed, so the zero probably covers shortened survival too. Counts of survivors are from the toxicity check (mostly the fifth day) where no day follows; animals may have died later. Schedule codes are those of the source, read here as Q, the interval in days (D) or hours (H), X, the number of doses. Some entries hold several experiments; their values stand side by side, smallest first. Where survival is the endpoint, this PubChem deposit counts one and a half times the control or more as active, and values a quarter to a half above the control carry no call in these data; other NCI protocols may use other cut-offs. Some T/C values are followed by the survivors on the day toxicity was checked, most often the fifth; without a count, all were alive then. Additions like (4×) count equal records among those shown.

Tested on: BDF1 mice, B16 melanoma s.c., survival/tumor T/C
Test: NCI In Vivo Anticancer Drug Screen. Data for tumor model B16 Melanoma (subcutaneous) in B6D2F1 (BDF1) mice
Conditions: T/C endpoint: median survival time, higher T/C = longer survival
Method: The antitumor activity of compounds was measured in mice bearing transplantable tumors. Survival or tumor size were measured and the results are expressed as the measurement made in the treated group (T) divided by the measurement made in the vehicle treated control group (C). The tumor model used in this assay is B16 Melanoma (subcutaneous) in B6D2F1 (BDF1) mice

[1] = dose: 8.0 mg/kg/injection, schedule: Q01DX009 (ip), vehicle: saline
[2] = dose: 16.0 mg/kg/injection, schedule: Q01DX009 (ip), vehicle: Klucel (hydroxypropylcellulose) (HPC)
[3] = dose: 60.0 mg/kg/injection, schedule: Q01DX001 (ip), vehicle: Klucel (hydroxypropylcellulose) (HPC)

For `N[C@H](C(=O)O)[C@@H]1CC(Cl)=NO1`, the T/C (dose: 4.0 mg/kg/injection, schedule: Q01DX009 (ip), vehicle: saline) was 127 % of control, the survivor count [1] was 9 of 10 and the survivor count (dose: 16.0 mg/kg/injection, schedule: Q01DX009 (ip), vehicle: saline) was 10 of 10. The survivor count (dose: 32.0 mg/kg/injection, schedule: Q01DX009 (ip), vehicle: saline) was 10 of 10.
`O=C1CSC(=S)N1c1ccco1` was tested, and the T/C (dose: 100.0 mg/kg/injection, schedule: Q01DX009 (ip), vehicle: Klucel (hydroxypropylcellulose) (HPC)) was 126 % of control and the T/C (dose: 200.0 mg/kg/injection, schedule: Q01DX009 (ip), vehicle: Klucel (hydroxypropylcellulose) (HPC)) was 132 % of control.
With `O=NN(CCF)C(=O)NCCO` the survivor count (dose: 14.4 mg/kg/injection, schedule: Q01DX007 (ip), vehicle: water) was 5 of 10 on day 55 and the survivor count (dose: 24.0 mg/kg/injection, schedule: Q01DX007 (ip), vehicle: water) was 1 of 10 on day 55.
In the case of `S=P(N1CC1)(N1CC1)N1CC1`, the survivor count (dose: 1.0 mg/kg/injection, schedule: Q01DX009 (ip), vehicle: saline) is reported as 6 of 6, the survivor count (dose: 8.0 mg/kg/injection, schedule: Q02DX009 (ip), vehicle: saline) is reported as 9 of 10 and the survivor count (dose: 16.0 mg/kg/injection, schedule: Q02DX009 (ip), vehicle: saline) is reported as 9 of 10 and 10 of 10. The survivor count (dose: 25.0 mg/kg/injection, schedule: Q01DX001 (ip), vehicle: saline) was 6 of 6, the survivor count (dose: 32.0 mg/kg/injection, schedule: Q01DX001 (oral), vehicle: saline) was 9 of 10 and the survivor count (dose: 32.0 mg/kg/injection, schedule: Q02DX009 (ip), vehicle: saline) was 5 of 10 and 6 of 10. For the same compound, the survivor count (dose: 64.0 mg/kg/injection, schedule: Q01DX001 (oral), vehicle: saline) was 6 of 10, the survivor count (dose: 64.0 mg/kg/injection, schedule: Q02DX009 (ip), vehicle: saline) was 4 of 10 and 6 of 10 and the survivor count (dose: 128.0 mg/kg/injection, schedule: Q01DX001 (oral), vehicle: saline) was 7 of 10. The survivor count (dose: 256.0 mg/kg/injection, schedule: Q01DX001 (oral), vehicle: saline) was 2 of 10 and the survivor count (dose: 512.0 mg/kg/injection, schedule: Q01DX001 (oral), vehicle: saline) was 1 of 10.
In the case of `COC(=O)[C@@]12OC[C@]34[C@H]([C@@H](O)[C@@H]1O)[C@@]1(C)CC(=O)C(O)=C(C)[C@@H]1C[C@H]3OC(=O)[C@H](OC(=O)/C=C(\C)C(C)C)[C@@H]24`, the T/C (dose: 1.7 mg/kg/injection, schedule: Q01DX009 (ip), vehicle: saline with Tween-80) is reported as 133 % of control [9 of 10 alive], the survivor count (dose: 2.0 mg/kg/injection, schedule: Q01DX009 (ip), vehicle: saline with Tween-80) is reported as 7 of 10 and the survivor count (dose: 2.6 mg/kg/injection, schedule: Q01DX009 (ip), vehicle: saline with Tween-80) is reported as 2 of 10. For the same compound, the survivor count (dose: 3.0 mg/kg/injection, schedule: Q01DX001 (ip), vehicle: saline with Tween-80) was 6 of 10, the survivor count (dose: 3.0 mg/kg/injection, schedule: Q04DX003 (ip), vehicle: saline with Tween-80) was 4 of 10 and the survivor count (dose: 4.0 mg/kg/injection, schedule: Q01DX009 (ip), vehicle: saline with Tween-80) was 0 of 10. For the same compound, the survivor count (dose: 4.5 mg/kg/injection, schedule: Q01DX001 (ip), vehicle: saline with Tween-80) was 3 of 10 and the survivor count (dose: 8.0 mg/kg/injection, schedule: Q01DX009 (ip), vehicle: saline with Tween-80) was 0 of 10.
`CO[C@H]1C[C@](C)(O)Cc2cc3c(c(O)c21)C(=O)c1c(O)cc2c(c1C3=O)O[C@@H]1O[C@@]2(C)[C@H](O)[C@@H](N(C)C)[C@@H]1O` was tested, and the survivor count (dose: 1.56 mg/kg/injection, schedule: Q01DX009 (ip), vehicle: other) was 6 of 6, the survivor count (dose: 3.12 mg/kg/injection, schedule: Q01DX009 (ip), vehicle: other) was 6 of 6 and the survivor count (dose: 6.25 mg/kg/injection, schedule: Q01DX009 (ip), vehicle: other) was 6 of 6. The survivor count (dose: 12.5 mg/kg/injection, schedule: Q01DX009 (ip), vehicle: other) was 6 of 6 and the survivor count (dose: 25.0 mg/kg/injection, schedule: Q01DX009 (ip), vehicle: other) was 10 of 10.
In the case of `CC1CCC(NC(=O)N(CCCl)N=O)CC1` (stereo not drawn), the T/C (dose: 1.0 mg/kg/injection, schedule: Q02DX009 (ip), vehicle: Klucel (hydroxypropylcellulose) (HPC)) is reported as 142 % of control, the T/C (dose: 2.0 mg/kg/injection, schedule: Q01DX009 (ip), vehicle: Klucel (hydroxypropylcellulose) (HPC)) is reported as 92, 103, 105, 111 (2×), 115 % of control and the survivor count (dose: 4.0 mg/kg/injection, schedule: Q01DX001 (ip), vehicle: saline with Tween-80) is reported as 9 of 10. For the same compound, the T/C (dose: 4.0 mg/kg/injection, schedule: Q01DX009 (ip), vehicle: Klucel (hydroxypropylcellulose) (HPC)) was 86 [5 of 6 alive], 96 [5 of 6 alive], 97, 105 [5 of 6 alive], 113, 117 % of control, the T/C (dose: 4.0 mg/kg/injection, schedule: Q02DX009 (ip), vehicle: Klucel (hydroxypropylcellulose) (HPC)) was 134 % of control and the T/C (dose: 5.0 mg/kg/injection, schedule: Q04DX003 (ip), vehicle: other) was 149 % of control. For the same compound, the T/C (dose: 7.5 mg/kg/injection, schedule: Q01DX001 (ip), vehicle: Klucel (hydroxypropylcellulose) (HPC)) was 126 % of control, the T/C (dose: 8.0 mg/kg/injection, schedule: Q01DX009 (ip), vehicle: Klucel (hydroxypropylcellulose) (HPC)) was 88, 111, 120 [5 of 6 alive], 139, 155, 163 % of control and the T/C (dose: 10.0 mg/kg/injection, schedule: Q04DX003 (ip), vehicle: other, evaluated on day 58) was 139 % of control [9 of 10 alive on day 58]. The T/C (dose: 10.0 mg/kg/injection, schedule: Q04DX003 (ip), vehicle: other, evaluated on day 60) was 141 % of control, the T/C (dose: 15.0 mg/kg/injection, schedule: Q01DX001 (ip), vehicle: Klucel (hydroxypropylcellulose) (HPC)) was 98, 105, 108, 117, 124, 126, 127, 133 % of control and the T/C (dose: 16.0 mg/kg/injection, schedule: Q01DX001 (ip), vehicle: saline with Tween-80) was 127 % of control. The T/C [2] was 157 % of control, the survivor count [2] was 6 of 6 and the T/C (dose: 24.0 mg/kg/injection, schedule: Q01DX001 (ip), vehicle: saline with Tween-80) was 131 % of control. For the same compound, the T/C (dose: 30.0 mg/kg/injection, schedule: Q01DX001 (ip), vehicle: Klucel (hydroxypropylcellulose) (HPC)) was 103, 104, 119, 128, 134, 137, 162, 186 % of control, the T/C (dose: 32.0 mg/kg/injection, schedule: Q01DX001 (ip), vehicle: saline with Tween-80) was 127 % of control and the survivor count (dose: 40.0 mg/kg/injection, schedule: Q01DX001 (ip), vehicle: other) was 8 of 8. The survivor count (dose: 40.0 mg/kg/injection, schedule: Q04DX003 (ip), vehicle: other) was 10 of 10, the T/C [3] was 107, 111 [5 of 6 alive], 142, 151, 173, 189 % of control and the survivor count [3] was 6 of 6. The survivor count (dose: 64.0 mg/kg/injection, schedule: Q01DX001 (ip), vehicle: saline with Tween-80) was 8 of 10 and 10 of 10, the survivor count (dose: 128.0 mg/kg/injection, schedule: Q01DX001 (ip), vehicle: saline with Tween-80) was 7 of 10 and 10 of 10 and the survivor count (dose: 256.0 mg/kg/injection, schedule: Q01DX001 (ip), vehicle: saline with Tween-80) was 0 of 10 and 10 of 10.
For `CNc1nc(N(C)C)nc(N(C)C)n1`, the T/C (dose: 100.0 mg/kg/injection, schedule: Q01DX009 (ip), vehicle: water) was 127 % of control, the survivor count (dose: 150.0 mg/kg/injection, schedule: Q01DX009 (ip), vehicle: water) was 10 of 10 and the survivor count (dose: 335.0 mg/kg/injection, schedule: Q01DX001 (ip), vehicle: water) was 10 of 10. The survivor count (dose: 500.0 mg/kg/injection, schedule: Q01DX001 (ip), vehicle: water) was 0 of 10 and the survivor count (dose: 750.0 mg/kg/injection, schedule: Q01DX001 (ip), vehicle: water) was 0 of 10.
`NC(CS/C(Cl)=C/Cl)C(=O)O` (stereo not drawn) was tested, and the survivor count [1] was 10 of 10 and the survivor count (dose: 12.0 mg/kg/injection, schedule: Q01DX009 (ip), vehicle: saline) was 10 of 10.
